Earlier results, collected in patent US12721846B2, “Methods for treating behavioral and psychological symptoms in patients with dementia” (SUVEN LIFE SCIENCES LIMITED, priority 2019, dated 2026).
At least one compound was matched to its structure with a doubt left.

Conditions: 30 mg daily dose; 186 patients with AD; cited from earlier work

**Q.** For CN(C)CCCC1(c2ccc(F)cc2)OCc2cc(C#N)ccc21 (stereo not shown) [Citalopram], which agitation is on record?
**A.** significant decrease in agitation
